Results reported in patent US20240315283A1, “ISOFUCOSTEROL A KEY NUTRIENT FOR PHYTOSTEROL EATING ANIMALS SUCH AS POLLEN EATING AND ALGAE-EATING AND PLANKTON EATING ORGANISMS” (APIX BIOSCIENCES, priority 2021, published 2024).

System: Bumblebee worker
Test: Isofucosterol composition of bumblebee workers
Parameters: species or system Bombus terrestris

C/C=C(/CC[C@@H](C)[C@H]1CC[C@H]2[C@@H]3CC=C4C[C@@H](O)CC[C@]4(C)[C@H]3CC[C@]12C)C(C)C [isofucosterol, Isofucosterol]
Isofucosterol (% total) (Bumblebee worker, percentage of total bee-relevant phytosterols): 50.15 % total | isofucosterol share of corporeal sterols (bumblebees such as Bombus terrestris): 40-55% | isofucosterol as share of total dry weight (total dry weight of a bumblebee): 0.10-0.25%
